Reference: paper PMC8468555
Results are given in words; binding and its absence hold for the method and conditions named. Binding seen in cells or lysates may run through a third protein. Some binding calls cover weakened binding; strength is not graded here.

Protein sequences, listed by entry. Tags and fused reporters are not part of them. Lines headed by an entry give the natural chain unless they say otherwise; changes in a name come on top. Chains listed by the source or under a name are the forms on record and can include a tag or linker. Residues count along the entry.
UniProt P25705, residues 44-553: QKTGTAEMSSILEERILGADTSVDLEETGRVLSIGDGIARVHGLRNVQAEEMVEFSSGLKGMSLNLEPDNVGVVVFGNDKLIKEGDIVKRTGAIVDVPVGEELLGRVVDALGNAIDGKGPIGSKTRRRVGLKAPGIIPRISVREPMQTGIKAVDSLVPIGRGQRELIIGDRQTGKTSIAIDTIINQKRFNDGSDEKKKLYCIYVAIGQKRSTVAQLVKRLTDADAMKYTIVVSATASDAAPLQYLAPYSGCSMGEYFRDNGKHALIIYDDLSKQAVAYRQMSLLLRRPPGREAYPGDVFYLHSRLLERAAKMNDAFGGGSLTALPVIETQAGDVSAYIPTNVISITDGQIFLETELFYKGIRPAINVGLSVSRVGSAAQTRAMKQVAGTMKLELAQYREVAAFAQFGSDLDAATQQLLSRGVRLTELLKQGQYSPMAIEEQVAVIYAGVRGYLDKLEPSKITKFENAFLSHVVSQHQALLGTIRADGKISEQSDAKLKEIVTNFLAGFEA
dystrophin Dp71 (human (endogenous in primary cultured myocytes of patient DMD3)) (P11532-7, form named): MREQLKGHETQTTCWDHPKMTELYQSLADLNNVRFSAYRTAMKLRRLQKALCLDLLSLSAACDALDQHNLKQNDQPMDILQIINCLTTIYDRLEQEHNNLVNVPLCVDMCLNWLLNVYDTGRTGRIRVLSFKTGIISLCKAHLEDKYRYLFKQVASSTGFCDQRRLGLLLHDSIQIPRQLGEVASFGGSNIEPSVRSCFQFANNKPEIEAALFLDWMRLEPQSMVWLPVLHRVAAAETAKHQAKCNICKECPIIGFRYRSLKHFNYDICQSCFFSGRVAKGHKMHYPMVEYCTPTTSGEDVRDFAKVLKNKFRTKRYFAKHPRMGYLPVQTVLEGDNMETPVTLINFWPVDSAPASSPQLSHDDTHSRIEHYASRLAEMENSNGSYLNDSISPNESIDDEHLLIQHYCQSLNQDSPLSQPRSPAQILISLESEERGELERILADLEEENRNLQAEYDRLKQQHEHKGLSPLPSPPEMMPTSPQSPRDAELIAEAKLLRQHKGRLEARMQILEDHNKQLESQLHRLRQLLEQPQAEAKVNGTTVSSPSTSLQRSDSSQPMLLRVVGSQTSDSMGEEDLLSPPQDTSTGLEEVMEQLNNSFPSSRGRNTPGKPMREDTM
UniProt P21796: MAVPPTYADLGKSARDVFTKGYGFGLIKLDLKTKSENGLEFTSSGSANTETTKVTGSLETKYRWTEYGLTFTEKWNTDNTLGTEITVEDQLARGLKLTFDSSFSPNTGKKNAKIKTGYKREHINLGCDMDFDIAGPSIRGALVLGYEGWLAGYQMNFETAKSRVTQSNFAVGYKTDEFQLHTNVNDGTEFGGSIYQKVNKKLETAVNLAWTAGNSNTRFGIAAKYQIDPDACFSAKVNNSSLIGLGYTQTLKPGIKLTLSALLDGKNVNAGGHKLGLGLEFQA

Tests used:
[1] = molecular target: ATP5A (human (endogenous in primary cultured myocytes of patient DMD3)) (UniProt P25705); test: co-IP; reciprocal: mouse anti-ATP5A (ab14748) coupled to Dynabeads M-270 Epoxy; total protein lysate of DMD3-derived primary cultured myocytes, lysis buffer with 0.1% SDS; western blot for dystrophin, ATP5A, VDAC1, COXIV
[2] = molecular target: dystrophin Dp71 (human (endogenous in primary cultured myocytes of patient DMD3)) (UniProt P11532); test: co-IP; mouse anti-dystrophin (7A10, sc-47760) coupled to Dynabeads M-270 Epoxy; total protein lysate of DMD3-derived primary cultured myocytes, lysis buffer with 0.1% SDS; western blot for dystrophin, ATP5A, VDAC1, COXIV

binding [1] | binding [2] | Substance
binds weakly |  | dystrophin Dp71 (from UniProt P11532-7 1-617)
no binding | no binding | VDAC1 (from UniProt P21796 1-283)
 | binds weakly | ATP5A (from UniProt P25705 44-553)
